Hit rate of the full screen: of about 310,000 compounds, about 17,000 (5.5%) were called active. The inconclusive results got no clear call from the source; some entries with a clear call stand among them for comparison. Calls come from the whole dose curve; as a rule, active = well fitted inhibition curve with a large enough effect; inconclusive = small, poorly fitted or top-dose-only effect, or effect the other way; inactive = no such curve, though single readings can be large or run the other way. Potencies of inconclusive entries are doubtful fits and often do not repeat.
These compounds were tested against Nuclear receptor ROR-gamma (Mus musculus) (UniProt P51450) (assay: qHTS for inhibitors of ROR gamma transcriptional activity). Conditions: Drosophila S2 Gal4-RORgamma UAS-luciferase reporter, 20 h; series mostly up to 53.6 µM.
Summary of the method: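 ROR gamma transcriptional activity was tracked as Gal4-UAS luciferase output in stably transfected Drosophila Schneider cells, with compound added 1 hr before 700 uM copper sulfate induction and a 20 hr ambient-temperature incubation.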
Note: nearly all actives have a fitted effect of over 60% in size.
Potency is the fitted concentration of half-maximal effect.

Sequences of proteins named here, by UniProt entry; tags and fusion partners are left off. A change or cut given only in a name is not applied to a line headed by its entry.
UniProt P51450: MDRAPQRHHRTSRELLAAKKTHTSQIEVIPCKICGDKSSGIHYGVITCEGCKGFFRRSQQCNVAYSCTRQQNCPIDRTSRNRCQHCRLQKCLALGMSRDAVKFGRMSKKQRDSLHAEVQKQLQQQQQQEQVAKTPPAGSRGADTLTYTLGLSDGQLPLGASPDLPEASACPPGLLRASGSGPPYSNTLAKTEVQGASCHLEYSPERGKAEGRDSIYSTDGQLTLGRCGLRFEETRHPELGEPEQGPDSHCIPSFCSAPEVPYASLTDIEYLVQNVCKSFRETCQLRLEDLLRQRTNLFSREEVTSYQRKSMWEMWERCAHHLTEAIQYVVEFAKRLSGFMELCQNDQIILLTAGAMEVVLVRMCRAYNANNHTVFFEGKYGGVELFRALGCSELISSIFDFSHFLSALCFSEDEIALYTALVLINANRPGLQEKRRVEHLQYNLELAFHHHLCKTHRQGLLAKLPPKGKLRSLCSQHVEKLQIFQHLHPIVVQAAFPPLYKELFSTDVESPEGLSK

Row | SMILES | Potency
1 | CCc1cc(=O)oc2c(C)c(OCC(=O)N3CCCc4ccccc43)ccc12 | active: 11.2 µM
2 | Cc1nccn1-c1ccc(C=O)cc1 | inconclusive: 35.5 µM [inhibitor, single point]
3 | COc1ccc(-c2nc(-c3cccc(C)c3)no2)cc1OC | inconclusive: 1 µM [inhibitor, full curve]
4 | Cc1ccc(CNc2ccc(N3C(=O)CC(C)C3=O)cc2[N+](=O)[O-])cc1 (configuration not stated) | inconclusive: 11.2 µM [activator, partial curve]
5 | O=C(NC1CC1)C1CCN(C2CCN(C(=O)Cc3ccc4c(c3)OCO4)CC2)CC1 | active: 10 µM
6 | CCOc1ccc(-c2nc(N)ncc2Oc2ccc(OC)cc2)c(O)c1 | inconclusive: 7.94 µM [activator, partial curve, poor fit]
7 | COc1ccccc1N(CC(=O)N/N=C/c1c(O)ccc2ccccc12)S(C)(=O)=O | active: 12.6 µM
8 | COc1ccc(C(=O)OCC(=O)c2ccc(C)c(S(=O)(=O)N3CCOCC3)c2)cc1OC | inconclusive: 14.1 µM [activator, single point]
9 | COc1ccc(N2CCN(C(=O)c3c(-c4ccccc4)noc3C)CC2)cc1 | inconclusive: 17.8 µM [activator, single point]
10 | Fc1ccc(-c2nc3ccccn3c2NCc2ccc3c(c2)OCO3)cc1 | inconclusive: 35.5 µM [inhibitor, single point]
11 | Cc1ccc(O)c(N=Cc2cc(Cc3ccccc3)cc([N+](=O)[O-])c2O)c1 | active: 12.6 µM
12 | COC(=O)C(Cc1ccc(O)cc1)NC(=O)C(C)Oc1ccccc1 (configuration not stated) | inconclusive: 11.2 µM [inhibitor, single point]
13 | Cc1ccc(NC(=S)NNC(=O)c2ccc(N3CCOCC3)c([N+](=O)[O-])c2)cc1Cl | active: 15.8 µM
14 | COc1ccc(NC(=S)NNC(=O)Cn2nc([N+](=O)[O-])cc2C)cc1 | inconclusive: 35.5 µM [inhibitor, single point]
15 | Nc1ccc(-c2cc(-c3ccc(N)cc3)nc(-c3ccccc3)n2)cc1 | inactive
16 | COc1ccc(-n2cc(-c3ccccc3)c3c(=S)nc[nH]c32)cc1 | active: 0.501 µM
17 | O=C(c1ccc(F)c(S(=O)(=O)N2CCOCC2)c1)N(c1ccccc1)c1ccccn1 | inactive
18 | COc1ccc(S(=O)(=O)Cc2ccc(C(=O)NCc3ccc(F)cc3)o2)cc1 | inactive
19 | COc1ccc(OC)c(NC(=O)Nc2nnc(N3CCC(C)CC3)s2)c1 | inconclusive: 10 µM [activator, partial curve]
20 | Cc1cc(C)cc(NC(=S)N2CCCC2)c1 | active: 12.6 µM
21 | COc1cccc(CNC(=O)COc2cc(O)c3c(c2)OC(C)(C)CC3=O)c1 | inactive
22 | CN1CCN(C(c2ccc(C(F)(F)F)cc2)c2ccc3cccnc3c2O)CC1 (configuration not stated) | active: 3.16 µM
23 | O=C(NC(NC(=S)Nc1ccccc1Cl)C(Cl)(Cl)Cl)c1cccc(Cl)c1 (configuration not stated) | inconclusive: 20 µM [inhibitor, single point]
24 | COCC(=O)N/N=C(\C)CC(=O)NCc1ccco1 | inactive

12 compounds out of the list, ordered by formula weight, low to high.
Row | SMILES | Potency
2 | Cc1nccn1-c1ccc(C=O)cc1 | inconclusive: 35.5 µM [inhibitor, single point]
24 | COCC(=O)N/N=C(\C)CC(=O)NCc1ccco1 | inactive
3 | COc1ccc(-c2nc(-c3cccc(C)c3)no2)cc1OC | inconclusive: 1 µM [inhibitor, full curve]
12 | COC(=O)C(Cc1ccc(O)cc1)NC(=O)C(C)Oc1ccccc1 (configuration not stated) | inconclusive: 11.2 µM [inhibitor, single point]
6 | CCOc1ccc(-c2nc(N)ncc2Oc2ccc(OC)cc2)c(O)c1 | inconclusive: 7.94 µM [activator, partial curve, poor fit]
9 | COc1ccc(N2CCN(C(=O)c3c(-c4ccccc4)noc3C)CC2)cc1 | inconclusive: 17.8 µM [activator, single point]
18 | COc1ccc(S(=O)(=O)Cc2ccc(C(=O)NCc3ccc(F)cc3)o2)cc1 | inactive
5 | O=C(NC1CC1)C1CCN(C2CCN(C(=O)Cc3ccc4c(c3)OCO4)CC2)CC1 | active: 10 µM
7 | COc1ccccc1N(CC(=O)N/N=C/c1c(O)ccc2ccccc12)S(C)(=O)=O | active: 12.6 µM
13 | Cc1ccc(NC(=S)NNC(=O)c2ccc(N3CCOCC3)c([N+](=O)[O-])c2)cc1Cl | active: 15.8 µM
8 | COc1ccc(C(=O)OCC(=O)c2ccc(C)c(S(=O)(=O)N3CCOCC3)c2)cc1OC | inconclusive: 14.1 µM [activator, single point]
23 | O=C(NC(NC(=S)Nc1ccccc1Cl)C(Cl)(Cl)Cl)c1cccc(Cl)c1 (configuration not stated) | inconclusive: 20 µM [inhibitor, single point]

(further entries)

Row | SMILES | Potency
25 | O=C(NCc1ccccc1)c1csc2c1CCCC2 | inactive
26 | COc1ccc(C(=O)/C=C/c2ccccc2)c(OC)c1 | inconclusive: 35.5 µM [inhibitor, single point]
27 | COc1cc2c(cc1O)CCN[C@@]21CS[C@H]2c3c(OC(C)=O)c(C)c4c(c3C(COC1=O)N1C2C2c3c(cc(C)c(OC)c3O)CC([C@@H]1O)N2C)OCO4 (some centres not stated) | active: 0.141 µM
28 | CCOc1ccc(S(=O)(=O)Nc2cc(Cl)ccc2O)cc1 | inconclusive: 2.51 µM [activator, partial curve]
29 | O=C(Nc1nc2ccccc2[nH]1)C1CCC1 | inconclusive: 25.1 µM [inhibitor, single point]
30 | O=C(/C=C/c1ccncc1)c1ccc2c(c1)OCCO2 | active: 3.98 µM
31 | C=CCNc1nc(Nc2ccc([N+](=O)[O-])cc2)nc(OC)n1 | inactive
32 | O=C(N/N=C\c1ccc[nH]1)C1COc2ccccc2O1 (configuration not stated) | active: 11.2 µM
33 | O=C(Nc1nc(-c2ccco2)c(-c2ccco2)s1)C1CCC1 | inconclusive: 11.2 µM [activator, partial curve]
34 | CN(C)C(CNS(=O)(=O)c1ccc(Br)cc1)c1cccnc1 (configuration not stated) | inconclusive: 0.562 µM [inhibitor, full curve, poor fit]
35 | CN1C(=O)C(O)(CC(=O)/C=C/c2ccco2)c2cc(Br)ccc21 (configuration not stated) | inconclusive: 35.5 µM [inhibitor, single point]
36 | O=C(CCl)N1N=C(c2cccs2)CC1c1ccco1 (configuration not stated) | active: 11.2 µM
37 | O=C(Cc1ccccc1)NNC(=S)Nc1ccccc1 | inconclusive: 11.2 µM [inhibitor, partial curve]
38 | COc1ccc(-c2c(C)[nH]n3c(=O)c(Cc4ccccc4)c(C)nc23)cc1OC | active: 3.55 µM
39 | CNc1nc(NCCOC23CC4CC(CC(C4)C2)C3)nc(OCC(F)(F)F)n1 | inconclusive: 14.1 µM [activator, single point]
40 | COc1ccc(-n2nnnc2-c2cnc(N3CCCC3)nc2C(F)(F)F)cc1 | inconclusive: 5.01 µM [activator, single point]
41 | COc1ccc(-c2nnc(SCC(=O)c3ccc[nH]3)o2)cc1 | inconclusive: 3.16 µM [inhibitor, single point]
42 | COc1cc2c(c(OCC(=O)NC(C)C)c1)C(=O)O[C@@H](C)CCCC(=O)CCCCC2 | inactive
43 | CC(C)OC(=O)NCCOC(=O)Nc1ccc(Cl)c(Cl)c1 | inconclusive: 20 µM [activator, partial curve]
44 | CC(=O)NC1(c2nnnn2CCOC(=O)Nc2ccc(Cl)cc2)CCCC1 | inconclusive: 11.2 µM [activator, partial curve, poor fit]
45 | Cc1ccc(C)c(/C=N/Nc2nc3ccccc3c(=O)n2O)c1 | inconclusive: 11.2 µM [inhibitor, partial curve, poor fit]
46 | Cc1ccc(NC(=O)COC(=O)c2ccc([N+](=O)[O-])o2)cc1S(=O)(=O)N1CCCCC1 | inactive
47 | Cc1cc(C)n(CCC(=O)N/N=C/c2c(O)ccc3ccccc23)n1 | active: 1.12 µM

Source: PubChem BioAssay AID2551 (National Center for Advancing Translational Sciences (NCATS), 2010)
